PubChem BioAssay AID540256 (National Center for Advancing Translational Sciences (NCATS), 2011)
Hit rate of the full screen: of about 300,000 compounds, about 3,700 (1.2%) were called active. This list was built around the results that the source calls inconclusive (neither active nor inactive); the mix of calls is not that of the screen. The call rests on the fitted dose curve; tested in HEK293 cells. Potencies beside an inconclusive call are fits to weak or partial responses and may not hold up.

assay: qHTS for Inhibitors of binding or entry into cells for Lassa Virus; conditions: Lassa virus pseudotype entry inhibition, cell reporter; activity change, negative = inhibition: at 37.9 µM (top of the series) unless noted; further: nearly all actives have a fitted effect of over 50% in size
On the % scale 0 is the no-effect control and ±100 the full control effect; potency means the concentration at half of the fitted maximal effect.

Which “activity change, negative = inhibition” value does the source give for `COC(=O)C(CCSC)NC(=O)Cn1ncc2c([nH]c3ccccc32)c1=O` (centres undefined) here?
Its value is inactive: 8.61% [at 46.1 µM].

With `Cc1ccc2nc(NC(=S)NC(=O)c3cccs3)sc2c1` as the molecule, how does the Potency read?
Its Potency is inconclusive: 1 µM [activator, full curve, poor fit].

With `COc1ccc(N(C(=O)c2snc(C(N)=O)c2N)C(C(=O)NC2CCCC2)c2ccc(OC)c(OC)c2)cc1` (centres undefined) as the molecule, how does the Potency read?
Its Potency is inconclusive: 14.1 µM [inhibitor, single point].

Which Potency does the source give for `COC(=O)c1nn(-c2ccc3c(c2)OCO3)cc1O` here?
The Potency was inconclusive: 20.6 µM [inhibitor, single point].

With `CCCNC(=O)Cn1c(=O)/c(=C\c2ccc(-c3ccc([N+](=O)[O-])cc3)o2)s/c1=C\C(=O)C(C)(C)C` as the molecule, how does the Potency read?
The Potency was inconclusive: 3.16 µM [activator, single point].

With `Cc1ccc(-c2ccc(=O)n(CC(=O)NCCc3ccc(Cl)cc3)n2)cc1` as the molecule, how does the “activity change, negative = inhibition” value read?
The value was inactive: 3.2% [at 46.1 µM].

With `CC(=O)OCCCNc1cc(SCc2ccco2)c2nonc2c1[N+](=O)[O-]` as the molecule, how does the Potency read?
Its Potency is inconclusive: 17.8 µM [inhibitor, partial curve, poor fit].

Which “activity change, negative = inhibition” value does the source give for `COc1ccccc1-c1noc(-c2ccc(N3CCN(C)CC3)c([N+](=O)[O-])c2)n1` here?
Its value is inactive: 15.4% [at 46.1 µM].

For `CCc1ccc(N(CC)C(=O)CCn2cnc3onc(-c4ccc(F)cc4)c3c2=O)cc1`, which Potency is on record?
The Potency was inconclusive: 17.8 µM [inhibitor, single point].

For `Nc1n[nH]c(N)c1N=Nc1ccc(Cl)cc1`, which “activity change, negative = inhibition” value is on record?
The value was inactive: 13.2%.

For `COc1ccc(-c2cn3c(n2)sc2cc(C(=O)Nc4cccc(SC)c4)ccc23)cc1`, which Potency is on record?
The Potency was inconclusive: 35.5 µM [inhibitor, single point].

Which Potency does the source give for `Cc1ccc(CSC2=Nc3ccccc3C3=NC(CC(=O)NCc4cccs4)C(=O)N23)c(C)c1` (centres undefined) here?
Its Potency is inconclusive: 35.5 µM [inhibitor, single point].

With `COCCn1c(C)cc(C(=O)COC(=O)c2c(C)nn(Cc3ccccc3)c2C)c1C` as the molecule, how does the Potency read?
Its Potency is active: 7.08 µM.

Which Potency does the source give for `CCNC(=S)N(CCc1c(C)[nH]c2ccc(Cl)cc12)Cc1ccco1` here?
The Potency was active: 7.94 µM.

For `Cc1nnc2ccc(-c3cccc(NS(=O)(=O)c4cc(F)ccc4F)c3)nn12`, which Potency is on record?
Its Potency is inconclusive: 1.26 µM [inhibitor, single point].

For `Cc1ccc(CNC(=O)CN2C(=O)CSc3ccc(S(=O)(=O)N(C)C)cc32)cc1`, which “activity change, negative = inhibition” value is on record?
Its value is inactive: 22.2% [at 46.1 µM].

Which Potency does the source give for `COCCN(Cc1cc2cc3c(cc2nc1Cl)OCO3)C(=O)Nc1ccc(F)cc1` here?
The Potency was inconclusive: 16.4 µM [inhibitor, partial curve, poor fit].

Which Potency does the source give for `CNC(=O)c1ccc(-c2ccccc2)s1` here?
Its Potency is inconclusive: 2.24 µM [activator, partial curve, poor fit].

For `CCn1cc(C(=O)OCC(=O)Nc2cc(OC)cc(OC)c2)c(=O)c2ccc(C)nc21`, which Potency is on record?
Its Potency is inconclusive: 35.5 µM [activator, single point].

With `CCOC(=O)c1ccc(NC(=O)CSc2ccc(-c3cccnc3)nn2)cc1` as the molecule, how does the Potency read?
The Potency was inconclusive: 20 µM [inhibitor, partial curve, poor fit].

Which “activity change, negative = inhibition” value does the source give for `O=C(NCc1ccccc1Cl)c1ccc(S(=O)(=O)NCc2ccco2)cc1` here?
The value was inactive: 1.01%.

With `Cc1ccc2c(c1)nnn2C1CCN(S(=O)(=O)c2ccc(C(=O)NC3CCCC3)cc2)CC1` as the molecule, how does the Potency read?
The Potency was inconclusive: 35.5 µM [inhibitor, partial curve, poor fit].

With `Cc1ccc(NP(=O)(Nc2ccc(C)cc2)Oc2ccccc2)cc1` as the molecule, how does the “activity change, negative = inhibition” value read?
The value was inactive: 4.53% [at 46.1 µM].

With `Cc1ccc(S(=O)(=O)NC2(C(=O)O)CCCC2)cc1` as the molecule, how does the “activity change, negative = inhibition” value read?
Its value is inactive: 1.01% [at 46.1 µM].

With `O=S(=O)(c1ccc(Br)cc1)N1CCCN(Cc2cccc(F)c2)CC1` as the molecule, how does the Potency read?
The Potency was “inactive”.

With `CCn1c(Cc2cccs2)nnc1SCC(=O)NC1CC1` as the molecule, how does the Potency read?
The Potency was inconclusive: 35.5 µM [activator, single point].

Which Potency does the source give for `Cc1ccsc1C(=O)OCc1nnc(-c2ccccc2)o1` here?
Its Potency is inconclusive: 5.62 µM [activator, partial curve].

With `Cc1ccc(-n2c(SCC(=O)Nc3ccc4cn[nH]c4c3)nnc2-c2ccco2)cc1` as the molecule, how does the Potency read?
The Potency was inconclusive: 10 µM [inhibitor, partial curve, poor fit].

For `CC(NC(=O)CCC(=O)N1CCN(S(=O)(=O)c2ccc(Cl)cc2)CC1)c1ccccc1` (centres undefined), which Potency is on record?
The Potency was inconclusive: 3.16 µM [inhibitor, full curve].

For `O=C(OCc1cc(=O)n2nc(-c3cccs3)sc2n1)c1ccccc1`, which Potency is on record?
The Potency was inconclusive: 12.6 µM [activator, single point].

With `N#Cc1ccc(C(=O)Nc2nnc(-c3ccco3)o2)cc1` as the molecule, how does the “activity change, negative = inhibition” value read?
Its value is inactive: -14.8%.

Which Potency does the source give for `CC12CC[C@H]3[C@@H](CCC4(O)C[C@H](O)CCC34/C=N/NC(=O)c3ccccc3O)C1(O)CCC2C1=CC(=O)OC1` (some centres undefined) here?
The Potency was inconclusive: 10 µM [inhibitor, partial curve, poor fit].

With `CCc1nnc(NC(=O)CSc2nnc3scc(-c4ccc(C)cc4)n23)s1` as the molecule, how does the Potency read?
Its Potency is inconclusive: 6.51 µM [inhibitor, single point].

Which “activity change, negative = inhibition” value does the source give for `CCCn1nc(C(=O)NNC(=O)c2cccc(S(=O)(=O)NC(C)C)c2)c2ccccc2c1=O` here?
Its value is inactive: 5.39%.

With `CCn1c(COc2cccc(C)c2)nnc1SCC(=O)Nc1cccc(C(=O)OC)c1` as the molecule, how does the “activity change, negative = inhibition” value read?
The value was inactive: 6.56%.

With `O=C1C2CCCCN2C(=O)N1CCCCN1CCN(c2ccc([N+](=O)[O-])cc2)CC1` (centres undefined) as the molecule, how does the “activity change, negative = inhibition” value read?
The value was inactive: -13.8%.

Which “activity change, negative = inhibition” value does the source give for `COc1ccc(-c2cc(=O)[nH]c(=S)[nH]2)cc1` here?
The value was inactive: 1.49% [at 46.1 µM].

Which Potency does the source give for `Cc1ccc2nc(-c3ccc(NC(=O)CCN4C(=O)c5ccccc5C4=O)cc3)sc2c1` here?
Its Potency is inconclusive: 3.55 µM [inhibitor, full curve, poor fit].

For `O=C(CCC1N=C2c3ccccc3N=C(SCc3cccc(F)c3)N2C1=O)NCCc1ccccc1` (centres undefined), which Potency is on record?
The Potency was inconclusive: 11.2 µM [activator, partial curve, poor fit].

With `O=C(Nc1nc(-c2cccc(Br)c2)cs1)Oc1ccccc1` as the molecule, how does the Potency read?
The Potency was inconclusive: 29.1 µM [inhibitor, single point].

With `Cc1cc(NC(=O)CSc2nnc3c(C)cc4c(C)ccc(C)c4n23)no1` as the molecule, how does the Potency read?
The Potency was inconclusive: 6.51 µM [inhibitor, single point].

For `CCC1Sc2ccc(S(=O)(=O)CCC(=O)Nc3ccc(NC(C)=O)cc3)cc2NC1=O` (centres undefined), which “activity change, negative = inhibition” value is on record?
The value was inactive: 8.83% [at 46.1 µM].

With `O=C(c1ccccc1)c1cn(Cc2ccc(F)cc2)c2ccccc2c1=O` as the molecule, how does the Potency read?
The Potency was inconclusive: 17.8 µM [inhibitor, single point].

Which Potency does the source give for `Cc1cnc(N=Nc2ccccc2)[nH]1` here?
Its Potency is inconclusive: 22.4 µM [inhibitor, partial curve, poor fit].

With `O=C1C=CC(=O)C(CNc2ccc(C(=O)OCc3ccccc3)cc2)=C1` as the molecule, how does the Potency read?
Its Potency is active: 11.2 µM.

For `COC(=O)c1ccccc1NC(=O)c1ccc(-c2nc(COc3ccccc3)c(C)o2)cc1`, which “activity change, negative = inhibition” value is on record?
The value was inactive: 3.87% [at 46.1 µM].

Which “activity change, negative = inhibition” value does the source give for `COc1ccc(Br)cc1/C=N/Nc1cccc(C(=O)O)c1` here?
Its value is inactive: 19.5%.

For `Cc1noc(NS(=O)(=O)c2ccc(NC(=O)CCC3CCCCC3)cc2)c1C`, which Potency is on record?
The Potency was inconclusive: 18.3 µM [activator, partial curve, poor fit].

For `COc1ccc(NC(=S)N/N=C/c2cccn2Cc2ccccc2F)cc1`, which “activity change, negative = inhibition” value is on record?
Its value is inactive: -9.47%.

For `COc1ccccc1C(=O)NCC1(c2ccccc2)CCCC1`, which Potency is on record?
The Potency was inconclusive: 15.8 µM [inhibitor, partial curve, poor fit].

Which “activity change, negative = inhibition” value does the source give for `CN(Cc1ccccc1)C(=O)c1cc2cc(F)ccc2[nH]1` here?
Its value is inactive: -5.85% [at 46.1 µM].

For `O=C(CNC(=O)c1ccccc1F)Nc1ccc2c(c1)CCC2`, which Potency is on record?
The Potency was inconclusive: 12.6 µM [activator, single point].

Which Potency does the source give for `CN(C)CCCNC(=O)/C=C/c1ccc(OCc2c(F)cccc2Cl)cc1` here?
Its Potency is inconclusive: 12.6 µM [inhibitor, partial curve, poor fit].

Which “activity change, negative = inhibition” value does the source give for `COc1cccc(-c2nc3ccccc3c(=O)o2)c1` here?
Its value is inactive: 12.8%.

For `Cc1cc(F)ccc1NC(=O)C1CCN(C(=O)c2cnn(-c3ccccc3)c2-n2cccc2)CC1`, which “activity change, negative = inhibition” value is on record?
Its value is inactive: -1.84% [at 46.1 µM].

Which Potency does the source give for `c1ccc(Nc2nc(-c3ccncc3)cs2)nc1` here?
The Potency was inconclusive: 35.5 µM [inhibitor, single point].

With `CCC(C)c1ccc(N(C(=O)c2ccco2)C(C(=O)NC2CCCC2)c2cccnc2)cc1` (centres undefined) as the molecule, how does the Potency read?
The Potency was inconclusive: 0.891 µM [inhibitor, full curve, poor fit].

With `Cc1cc(NC(=O)CCS(=O)(=O)c2nc(-c3ccccc3)cc(C(F)(F)F)n2)no1` as the molecule, how does the Potency read?
Its Potency is inconclusive: 25.1 µM [inhibitor, single point].

For `CCCC(=O)Nc1ccc(Cl)c(NC(=O)c2ccco2)c1`, which Potency is on record?
The Potency was inconclusive: 4.11 µM [inhibitor, full curve, poor fit].

For `Cc1ccc(N=C2N=C(N)c3ccccc32)cc1C`, which Potency is on record?
Its Potency is inconclusive: 25.9 µM [inhibitor, single point].

With `Cc1cc2c(cc1C)C(c1ccccc1OC(C)C)CC(=O)N2` (centres undefined) as the molecule, how does the Potency read?
The Potency was inconclusive: 1.78 µM [inhibitor, partial curve, poor fit].

Which Potency does the source give for `CC1(c2ccccc2Cl)NC(=O)N(CC(=O)Nc2ccc(N3CCCCC3)cc2)C1=O` (centres undefined) here?
The Potency was inconclusive: 1.26 µM [inhibitor, single point].

For `CCCNC(=O)COCc1cc(-c2ccc(F)cc2)on1`, which Potency is on record?
The Potency was inconclusive: 31.6 µM [activator, single point].

Which “activity change, negative = inhibition” value does the source give for `CCCCn1c(O)c(C(CC)=Nc2ccc(C(=O)O)cc2)c(=O)[nH]c1=O` here?
Its value is inactive: -21.6%.

Which Potency does the source give for `Cc1cnc(NC(=O)CCCc2nc3ccccc3s2)s1` here?
The Potency was inconclusive: 25.1 µM [inhibitor, single point].

Which Potency does the source give for `CCC(=O)NC(=S)Nc1ccc(NC(=O)c2ccc(C)c([N+](=O)[O-])c2)cc1` here?
The Potency was inconclusive: 3.55 µM [inhibitor, partial curve].

Which “activity change, negative = inhibition” value does the source give for `O=C(NCc1ccccc1Br)c1ccc2c(c1)nc1n2CCOC1` here?
The value was inactive: -16.4% [at 46.1 µM].

For `Cc1ccc(C(=O)NC(=S)N2CCN(c3ccccc3F)CC2)cc1`, which Potency is on record?
Its Potency is inconclusive: 6.31 µM [inhibitor, single point].
